Reference: US4767749A, “Ester of (triarylphosphoranylidene)carbamic acid having diuretic and ability to lower plasma renin properties” (American Cyanamid Company, priority 1986, dated 1988)
Several values for one entry are separate records, joined by “and”; a condition that tells them apart may be missing. Equal entries are not always repeated. At least one read-out could not be matched to a standard name with certainty.

Test system: spontaneously hypertensive rats (SHR)
Assay: Diuretic activity in spontaneously hypertensive rats
Assay type: in vivo, male spontaneously hypertensive rats (Okamoto strain)
Details: 100 mg/kg by gavage with 0.9% sodium chloride loading 25 ml/kg; 0-5 hour urine
Experimental: The diuretic activity of the compounds of this invention was also determined according to the method of Chan, P. S. and Poorvin, D., Sequential method for combined screening antihypertensive and diuretic agents in the same spontaneously hypertensive rat. Clinical and Experimental Hypertension, 1(6), 817-830 (1979).
Male spontaneously hypertensive rats (SHR) of Okamoto strain, 16 weeks old, Taconic Farms Inc. were used in the test. These rats were kept on Purina laboratory chow and tap water ad libitum for 8 weeks before use. One male adult rat (about 300 g) was dosed by gavage with a test compound at 100 mg/kg together with 0.9% sodium chloride loading at 25 ml/kg at zero hour. The test compound was suspended in 3% preboiled starch at 50 mg/ml. The rat was put in a metabolism cage. The 0-5 hour urine was collected and urinary sodium and potassium were determined using a Beckman Astra 4. The effects of representative compounds of the invention according to this test appear in Table III expressed in milliequivalents (mEQ) of urinary sodium and potassium excreted.

Compound: O=C(N=P(c1ccccc1)(c1ccccc1)c1ccccc1)OCc1ccccn1 [(triphenylphosphoranylidene)carbamic acid, 2-pyridinylmethyl ester]
- Potassium (urinary excretion): 0.82 mEQ/5 Hours and 1.00 mEQ/5 Hours
- Sodium (urinary excretion): 1.25 mEQ/5 Hours and 1.60 mEQ/5 Hours
- Volume (urine): 14.0 mL and 14.5 mL
